Experimental data: PMC11193767

Chains of the proteins cited; added tags and fusions are not shown.
UniProt Q8IWT6: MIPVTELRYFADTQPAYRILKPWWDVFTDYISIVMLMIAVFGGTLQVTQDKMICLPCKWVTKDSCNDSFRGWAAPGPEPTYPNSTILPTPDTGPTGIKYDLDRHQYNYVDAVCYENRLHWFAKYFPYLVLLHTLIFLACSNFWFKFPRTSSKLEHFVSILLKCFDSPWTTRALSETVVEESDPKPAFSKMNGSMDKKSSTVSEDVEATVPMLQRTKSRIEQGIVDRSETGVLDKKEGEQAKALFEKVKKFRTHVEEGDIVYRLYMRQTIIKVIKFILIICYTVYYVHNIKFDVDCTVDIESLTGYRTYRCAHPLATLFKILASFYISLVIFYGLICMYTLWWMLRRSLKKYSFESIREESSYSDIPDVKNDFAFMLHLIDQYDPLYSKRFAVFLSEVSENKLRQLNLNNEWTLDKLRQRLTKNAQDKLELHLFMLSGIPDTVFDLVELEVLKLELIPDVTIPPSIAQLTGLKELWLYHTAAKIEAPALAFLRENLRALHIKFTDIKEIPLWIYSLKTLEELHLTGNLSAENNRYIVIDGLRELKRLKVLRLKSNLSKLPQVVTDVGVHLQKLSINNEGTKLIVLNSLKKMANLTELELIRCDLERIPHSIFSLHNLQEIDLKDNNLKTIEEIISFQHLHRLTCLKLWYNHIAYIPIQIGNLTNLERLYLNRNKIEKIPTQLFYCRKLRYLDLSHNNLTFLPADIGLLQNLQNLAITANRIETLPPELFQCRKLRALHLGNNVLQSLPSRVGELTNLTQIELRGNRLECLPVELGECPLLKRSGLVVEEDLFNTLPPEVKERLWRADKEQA

B1: Active breakpoint cluster region-related protein (protein, UniProt Q12979-1 1-859)
chain: MEPLSHRGLPRLSWIDTLYSNFSYGTDEYDGEGNEEQKGPPEGSETMPYIDESPTMSPQLSARSQGGGDGVSPTPPEGLAPGVEAGKGLEMRKLVLSGFLASEEIYINQLEALLLPMKPLKATATTSQPVLTIQQIETIFYKIQDIYEIHKEFYDNLCPKVQQWDSQVTMGHLFQKLASQLGVYKAFVDNYKVALETAEKCSQSNNQFQKISEELKVKGPKDSKDSHTSVTMEALLYKPIDRVTRSTLVLHDLLKHTPVDHPDYPLLQDALRISQNFLSSINEDIDPRRTAVTTPKGETRQLVKDGFLVEVSESSRKLRHVFLFTDVLLCAKLKKTSAGKHQQYDCKWYIPLADLVFPSPEESEASPQVHPFPDHELEDMKMKISALKSEIQKEKANKGQSRAIERLKKKMFENEFLLLLNSPTIPFRIHNRNGKSYLFLLSSDYERSEWREAIQKLQKKDLQAFVLSSVELQVLTGSCFKLRTVHNIPVTSNKDDDESPGLYGFLHVIVHSAKGFKQSANLYCTLEVDSFGYFVSKAKTRVFRDTAEPKWDEEFEIELEGSQSLRILCYEKCYDKTKVNKDNNEIVDKIMGKGQIQLDPQTVETKNWHTDVIEMNGIKVEFSMKFTSRDMSLKRTPSKKQTGVFGVKISVVTKRERSKVPYIVRQCVEEVEKRGIEEVGIYRISGVATDIQALKAVFDANNKDILLMLSDMDINAIAGTLKLYFRELPEPLLTDRLYPAFMEGIALSDPAAKENCMMHLLRSLPDPNLITFLFLLEHLKRVAEKEPINKMSLHNLATVFGPTLLRPSEVESKAHLTSAADIWSHDVMAQVQVLLYYLQHPPISFAELKRNTLYFSTDV
B2: Protein EFR3 homolog A (protein, UniProt Q14156-1 1-821)
chain: MPTRVCCCCSALRPRYKRLVDNIFPEDPKDGLVKTDMEKLTFYAVSAPEKLDRIGSYLAERLSRDVVRHRSGYVLIAMEALDQLLMACHSQSIKPFVESFLHMVAKLLESGEPKLQVLGTNSFVKFANIEEDTPSYHRRYDFFVSRFSAMCHSCHSDPEIRTEIRIAGIRGIQGVVRKTVNDELRATIWEPQHMDKIVPSLLFNMQKIEEVDSRIGPPSSPSATDKEENPAVLAENCFRELLGRATFGNMNNAVRPVFAHLDHHKLWDPNEFAVHCFKIIMYSIQAQYSHHVIQEILGHLDARKKDAPRVRAGIIQVLLEAVAIAAKGSIGPTVLEVFNTLLKHLRLSVEFEANDLQGGSVGSVNLNTSSKDNDEKIVQNAIIQTIGFFGSNLPDYQRSEIMMFIMGKVPVFGTSTHTLDISQLGDLGTRRIQIMLLRSLLMVTSGYKAKTIVTALPGSFLDPLLSPSLMEDYELRQLVLEVMHNLMDRHDNRAKLRGIRIIPDVADLKIKREKICRQDTSFMKKNGQQLYRHIYLGCKEEDNVQKNYELLYTSLALITIELANEEVVIDLIRLAIALQDSAIINEDNLPMFHRCGIMALVAAYLNFVSQMIAVPAFCQHVSKVIEIRTMEAPYFLPEHIFRDKCMLPKSLEKHEKDLYFLTNKIAESLGGSGYSVERLSVPYVPQVTDEDRLSRRKSIVDTVSIQVDILSNNVPSDDVVSNTEEITFEALKKAIDTSGMEEQEKEKRRLVIEKFQKAPFEEIAAQCESKANLLHDRLAQILELTIRPPPSPSGTLTITSGHAQYQSVPVYEMKFPDLCVY
B3: Protein EFR3 homolog B (protein, UniProt Q9Y2G0-1 1-817)
chain: MYGVCGCCGALRPRYKRLVDNIFPEDPEDGLVKTNMEKLTFYALSAPEKLDRIGAYLSERLIRDVGRHRYGYVCIAMEALDQLLMACHCQSINLFVESFLKMVAKLLESEKPNLQILGTNSFVKFANIEEDTPSYHRSYDFFVSRFSEMCHSSHDDLEIKTKIRMSGIKGLQGVVRKTVNDELQANIWDPQHMDKIVPSLLFNLQHVEEAESRSPSPLQAPEKEKESPAELAERCLRELLGRAAFGNIKNAIKPVLIHLDNHSLWEPKVFAIRCFKIIMYSIQPQHSHLVIQQLLGHLDANSRSAATVRAGIVEVLSEAAVIAATGSVGPTVLEMFNTLLRQLRLSIDYALTGSYDGAVSLGTKIIKEHEERMFQEAVIKTVGSFASTLPTYQRSEVILFIMSKVPRPSLHQAVDTGRTGENRNRLTQIMLLKSLLQVSTGFQCNNMMSALPSNFLDRLLSTALMEDAEIRLFVLEILISFIDRHGNRHKFSTISTLSDISVLKLKVDKCSRQDTVFMKKHSQQLYRHIYLSCKEETNVQKHYEALYGLLALISIELANEEVVVDLIRLVLAVQDVAQVNEENLPVYNRCALYALGAAYLNLISQLTTVPAFCQHIHEVIETRKKEAPYMLPEDVFVERPRLSQNLDGVVIELLFRQSKISEVLGGSGYNSDRLCLPYIPQLTDEDRLSKRRSIGETISLQVEVESRNSPEKEERVPAEEITYETLKKAIVDSVAVEEQERERRRQVVEKFQKAPFEEIAAHCGARASLLQSKLNQIFEITIRPPPSPSGTITAAYGQPQNHSIPVYEMKFPDLCVY
B4: Epidermal growth factor receptor substrate 15 (protein, UniProt P42566-1 1-896)
chain: MAAAAQLSLTQLSSGNPVYEKYYRQVDTGNTGRVLASDAAAFLKKSGLPDLILGKIWDLADTDGKGILNKQEFFVALRLVACAQNGLEVSLSSLNLAVPPPRFHDTSSPLLISGTSAAELPWAVKPEDKAKYDAIFDSLSPVNGFLSGDKVKPVLLNSKLPVDILGRVWELSDIDHDGMLDRDEFAVAMFLVYCALEKEPVPMSLPPALVPPSKRKTWVVSPAEKAKYDEIFLKTDKDMDGFVSGLEVREIFLKTGLPSTLLAHIWSLCDTKDCGKLSKDQFALAFHLISQKLIKGIDPPHVLTPEMIPPSDRASLQKNIIGSSPVADFSAIKELDTLNNEIVDLQREKNNVEQDLKEKEDTIKQRTSEVQDLQDEVQRENTNLQKLQAQKQQVQELLDELDEQKAQLEEQLKEVRKKCAEEAQLISSLKAELTSQESQISTYEEELAKAREELSRLQQETAELEESVESGKAQLEPLQQHLQDSQQEISSMQMKLMEMKDLENHNSQLNWCSSPHSILVNGATDYCSLSTSSSETANLNEHVEGQSNLESEPIHQESPARSSPELLPSGVTDENEVTTAVTEKVCSELDNNRHSKEEDPFNVDSSSLTGPVADTNLDFFQSDPFVGSDPFKDDPFGKIDPFGGDPFKGSDPFASDCFFRQSTDPFATSSTDPFSAANNSSITSVETLKHNDPFAPGGTVVAASDSATDPFASVFGNESFGGGFADFSTLSKVNNEDPFRSATSSSVSNVVITKNVFEETSVKSEDEPPALPPKIGTPTRPCPLPPGKRSINKLDSPDPFKLNDPFQPFPGNDSPKEKDPEIFCDPFTSATTTTNKEADPSNFANFSAYPSEEDMIEWAKRESEREEEQRLARLNQQEQEDLELAIALSKSEISEA

biological target: LRRC8A-BirA*-HA fusion protein (human) (UniProt Q8IWT6); experiment: proximity labelling; BioID: HEK293 cells stably expressing LRRC8A-BirA*-HA (two clones), 50 uM biotin 24 h, RIPA lysis, streptavidin bead pull-down of biotinylated proteins, TMT labelling and LC-MS/MS; hits: FDR <= 0.05 and fold change >= 2 against the no-biotin control

binding, binds:
B1
B2
B3
B4

No constants are given. Whether binding was seen depends on the method and setting. In cells and extracts the contact can be indirect. Here binding means that the protein was enriched with, or labelled near, the bait; the list need not be complete.
